For the assay, the system named is E18 rat cortical neuron-glia co-culture. The assay is described as follows: total nuclei (DAPI) / Olig2+ nuclei (ratio); higher = more depletion of OPC/OL lineage cells. Particulars: treatment time: 8 days (DIV5-DIV13).

SMILES strings stand for the structures. Counter-ions that a name gives are not always drawn. The list shows a part of the results. Part of the spread comes from offsets between plates or batches.

Turning to `Nc1nc(N)nc(-c2cc(Cl)ccc2Cl)n1` [Irsogladine], the total nuclei by setting is: (1 µM) 4.49; (5 µM) 4.5.
The matching figures for `COc1ccc2c(c1)c(CC(=O)O)c(C)n2C(=O)c1ccc(Cl)cc1` [Indomethacin]: 3.61 and 3.3.
The like results for `CCCCC1=NC2(CCCC2)C(=O)N1Cc1ccc(-c2ccccc2-c2nnn[nH]2)cc1` [Irbesartan] were, in that order, 2.72 and 2.8.
The like results for `O=S(=O)(O)CCS` [Mesna] were, in that order, 2.54 and 2.4.
`CCOc1cc(CC(=O)N[C@@H](CC(C)C)c2ccccc2N2CCCCC2)ccc1C(=O)O` [Repaglinide]: the total nuclei reads like this: (1 µM) 2.8; (5 µM) 3.
Turning to `OCCOCCN1CCN(C2=Nc3ccccc3Sc3ccccc32)CC1` [Quetiapine hemifumarate], the total nuclei was found to be 2.88 (1 µM) and 3.1 (5 µM).
The like results for `CCN(CC)C(=S)SSC(=S)N(CC)CC` [Disulfiram] were, in that order, 4.58 and over 40.
The matching figures for `Cc1cccc(Nc2ccccc2C(=O)O)c1C` [Mefenamic Acid]: 3.73 and 5.4.
The matching figures for `CCCSc1ccc2[nH]c(NC(=O)OC)nc2c1` [Albendazole]: 12.8 and 9.4.
With `CC(C)NCC(O)c1ccc(O)c(O)c1` (configuration not stated) [Isoproterenol], the total nuclei runs as follows: (1 µM) 4.48; (5 µM) 4.6.
The matching figures for `Cc1c(O)cccc1C(=O)N[C@@H](CSc1ccccc1)[C@H](O)CN1C[C@H]2CCCC[C@H]2C[C@H]1C(=O)NC(C)(C)C` [Nelfinavir]: 4.3 and 28.1.
For `COc1cc(-c2ccc(=O)[nH]n2)ccc1OC(F)F` [Zardaverine], the total nuclei amounted to 4.16 (1 µM) and 6.6 (5 µM).
The matching figures for `CN1C(C(=O)Nc2ccccn2)=C(O)c2ccccc2S1(=O)=O` [Piroxicam]: 2.86 and 2.9.
On to `Nc1ccn([C@@H]2O[C@H](CO)[C@@H](O)[C@@H]2O)c(=O)n1` [Cytarabine], for which the total nuclei runs as follows: (1 µM) over 40; (5 µM) over 40.
As for `CNC(=N)NCCC[C@H](N)C(=O)O`, the total nuclei by setting is: (1 µM) 3.41; (5 µM) 4.9.
The like results for `C=C1/C(=C\C=C2/CCC[C@]3(C)[C@@H]([C@H](C)CCCC(C)(C)O)CC[C@@H]23)C[C@@H](O)C[C@@H]1O` [Calcitriol] were, in that order, 2.8 and 3.4.
The matching figures for `CC1(C)S[C@@H]2[C@H](/N=C/N3CCCCCC3)C(=O)N2[C@H]1C(=O)O` [Amdinocillin]: 4.1 and 5.3.
Turning to `CO[C@H]1/C=C/O[C@@]2(C)Oc3c(C)c(O)c4c(O)c(c(/C=N/N5CCN(C)CC5)c(O)c4c3C2=O)NC(=O)/C(C)=C\C=C\[C@H](C)[C@H](O)[C@@H](C)[C@@H](O)[C@@H](C)[C@H](OC(C)=O)[C@@H]1C` [Rifampicin], the total nuclei runs as follows: (1 µM) 6.42; (5 µM) 5.5.
The matching figures for `CC(=O)O[C@H]1C[C@@H]2CC[C@@H]3[C@H](CC[C@@]4(C)[C@H]3C[C@H]([N+]3(C)CCCCC3)[C@@H]4OC(C)=O)[C@@]2(C)C[C@@H]1N1CCCCC1` [Vecuronium Bromide]: 2.88 and 2.9.
The matching figures for `Nc1nc2c(ncn2COC(CO)CO)c(=O)[nH]1` [Ganciclovir]: 2.38 and 3.1.
The matching figures for `O=C1c2c(O)cc(O)cc2OC(c2ccc(O)c(O)c2)C1O` (configuration not stated) [Taxifolin]: 5.1 and 4.7.
For `CC(=O)OCC(=O)[C@@]1(O)CC[C@H]2[C@@H]3C[C@H](C)C4=CC(=O)C=C[C@]4(C)[C@H]3[C@@H](O)C[C@@]21C` [Methylprednisolone acetate], the total nuclei stood at 4.44 (1 µM) and 4.4 (5 µM).
The like results for `O=C1Nc2ccccc2/C1=C1/Nc2ccccc2C1=O` [Indirubin] were, in that order, 2.61 and 2.7.
The like results for `CC(C)n1c(/C=C/C(O)CC(O)CC(=O)O)c(-c2ccc(F)cc2)c2ccccc21` (configuration not stated) [Fluvastatin] were, in that order, 4.25 and 4.5.
With `CC(=O)[C@H]1CC[C@H]2[C@@H]3CCC4=CC(=O)CC[C@]4(C)[C@H]3CC[C@]12C` [Progesterone], the total nuclei is 3.27 (1 µM) and 3.6 (5 µM).
In the case of `CC1=Nc2ccc(Cl)cc2S(=O)(=O)N1` [Diazoxide], the total nuclei was 2.81 (1 µM) and 2.8 (5 µM).
The matching figures for `CCOc1cc(N)c(Cl)cc1C(=O)NCC1CN(Cc2ccc(F)cc2)CCO1` (configuration not stated) [Mosapride]: 3.91 and 3.8.
The like results for `CC(C)NCC(O)c1ccc(NS(C)(=O)=O)cc1` (configuration not stated) [Sotalol] were, in that order, 5.2 and 4.1.
With `C[C@]12CC[C@@H]3c4ccc(OS(=O)(=O)O)cc4CC[C@H]3[C@@H]1CCC2=O` [Estrone sulfate], the total nuclei (1 µM) was determined as 4 and the total nuclei (5 µM) amounted to 4.1.
The like results for `CN1CCN(C2=Nc3cc(F)ccc3Cc3ccccc32)CC1` [Fluperlapine] were, in that order, 2.9 and 2.8.
The like results for `CC[N+](C)(CC)CCOC(=O)C(O)(c1ccccc1)C1CCCCC1` (configuration not stated) [Oxyphenonium] were, in that order, 2.67 and 3.1.
The like results for `CN1C(=O)CC[C@H]1c1cccnc1` [Cotinine] were, in that order, 5.4 and 5.3.
On to `CN/C(=N\CCSCc1nc[nH]c1C)NC#N` [Cimetidine], for which the total nuclei reads like this: (1 µM) 3.69; (5 µM) 3.7.
The matching figures for `CN1[C@@H](CC(=O)c2ccccc2)CCC[C@H]1C[C@H](O)c1ccccc1` [Lobeline]: 2.71 and 2.8.
In the case of `CCN(CC)CCNC(=O)c1cc(Cl)c(N)cc1OC` [Metoclopramide], the total nuclei runs as follows: (1 µM) 3.91; (5 µM) 2.9.
The like results for `CS(=O)(=O)OCCCCOS(C)(=O)=O` [Busulfan] were, in that order, 3.91 and 7.9.

These data come from the supplement of paper PMC4840960.
